PubChem BioAssay AID1053208 | Peter MacCallum Cancer Centre | 2014
The whole screen tested about 17,000 reagents; below is an unselected part. 788 of them (4.7%) count as active. 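Calls rest on z-score classes alone; an extra cut-off of viability at most 70% of control was not applied to them.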 Unmarked entries are inactive. Further read-outs or replicates are left out here.

Screen: 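Find knock-downs that sensitise mouse osteosarcoma cells to doxorubicin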 (primary screen)
System: mouse osteosarcoma cells, early-passage culture from an engineered mouse model of fibroblastic bone tumour
Knock-down reagent: siRNA pool against mouse genes, 40 nM
Timing: about 120 h (48 h before drug, then 72 h with drug)
Treatment: doxorubicin 100 nM for 72 h, roughly 30-40% inhibitory dose
Measurement: 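Luminescent ATP signal taken as viability with or without 100 nM doxorubicin for 72 h; mean of two wells set against non-targeting siRNA and turned into robust z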
Scale: viability z-score with doxorubicin: higher = more viable cells under doxorubicin; viability z-score without drug: higher = more viable cells with knock-down alone
Active means: 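Called active if knock-down leaves viability unchanged without drug (z within -2 to 2) but lowers it with doxorubicin (z at or under -2)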

Dock8 showed combined z-score class no change with or without drug; viability z-score with doxorubicin -0.9; viability z-score without drug 0.17. Knock-down of Rfx5 resulted in: combined z-score class no change with or without drug; viability z-score with doxorubicin -0.22; viability z-score without drug -0.51. Depletion of Scoc came out at: combined z-score class no change with or without drug; viability z-score with doxorubicin -0.22; viability z-score without drug 0.84. F11 gave combined z-score class no change with or without drug; viability z-score with doxorubicin -0.9; viability z-score without drug -0.51. For Mtmr14, the values are combined z-score class no change with or without drug; viability z-score with doxorubicin 0.67; viability z-score without drug 1.85. Depletion of Or5m3 resulted in: combined z-score class no change with or without drug; viability z-score with doxorubicin -0.79; viability z-score without drug -1.85.

After knock-down of Angpt4 the results were combined z-score class no change with or without drug; viability z-score with doxorubicin -1.12; viability z-score without drug -1.85. For Or10g9, the values are combined z-score class no change with or without drug; viability z-score with doxorubicin -1.12; viability z-score without drug 0.17. For Gabra1 the deposit lists combined z-score class no change with or without drug; viability z-score with doxorubicin 0.67; viability z-score without drug -0.34. Depletion of Akr1c6 resulted in: combined z-score class low cell count with doxorubicin only (active); viability z-score with doxorubicin -2.02; viability z-score without drug -0.51. Against Evc2, the entry reads combined z-score class no change with or without drug; viability z-score with doxorubicin 0.9; viability z-score without drug -0.51. For Myo3b, the values are combined z-score class no change with or without drug; viability z-score with doxorubicin 1.12; viability z-score without drug 1.69.

After knock-down of Eif5a, the record shows combined z-score class high cell count without drug only; viability z-score with doxorubicin 0; viability z-score without drug 2.87. Against Gdnf the deposit lists combined z-score class no change with or without drug; viability z-score with doxorubicin -0.11; viability z-score without drug 0.84.

Only “combined z-score class” (2 entries from above):
Mtmr14: no change with or without drug
Or5m3: no change with or without drug

More reagents:
After knock-down of Rpl37, the record shows combined z-score class low cell count with and without drug; viability z-score with doxorubicin -3.82; viability z-score without drug -4.89. With knock-down of Mgat4b the results were combined z-score class no change with or without drug; viability z-score with doxorubicin -0.45; viability z-score without drug -0.51. For Smc1a, the values are combined z-score class low cell count with and without drug; viability z-score with doxorubicin -3.04; viability z-score without drug -2.19. Klra4 showed combined z-score class no change with or without drug; viability z-score with doxorubicin 0.9; viability z-score without drug 0.17. After knock-down of Col10a1, the screen gave combined z-score class no change with or without drug; viability z-score with doxorubicin 0.45; viability z-score without drug -0.17. Fbxw9 gave combined z-score class no change with or without drug; viability z-score with doxorubicin -0.67; viability z-score without drug 0.17.

Mrto4 showed combined z-score class no change with or without drug; viability z-score with doxorubicin 0.9; viability z-score without drug 0.84. After knock-down of Rhoc, the screen gave combined z-score class no change with or without drug; viability z-score with doxorubicin -0.56; viability z-score without drug 1.01. Knock-down of Clic5 came out at: combined z-score class no change with or without drug; viability z-score with doxorubicin -0.11; viability z-score without drug -0.51. Knock-down of Pacc1 gave: combined z-score class no change with or without drug; viability z-score with doxorubicin -0.45; viability z-score without drug 0.51. Zbtb5 gave combined z-score class no change with or without drug; viability z-score with doxorubicin -0.9; viability z-score without drug 1.52. Cers1 gave combined z-score class no change with or without drug; viability z-score with doxorubicin -0.11; viability z-score without drug 0.51.

After knock-down of Mrpl15, the record shows combined z-score class low cell count with and without drug; viability z-score with doxorubicin -3.6; viability z-score without drug -2.19. Nudt13 scored combined z-score class no change with or without drug; viability z-score with doxorubicin -1.35; viability z-score without drug -1.18. After knock-down of Gsc, the record shows combined z-score class no change with or without drug; viability z-score with doxorubicin -0.22; viability z-score without drug 0. Lipt2 scored combined z-score class no change with or without drug; viability z-score with doxorubicin 0.67; viability z-score without drug -0.51. Against Exo5, the values are combined z-score class no change with or without drug; viability z-score with doxorubicin -0.34; viability z-score without drug -1.18. With knock-down of Abcb6, the screen gave combined z-score class no change with or without drug; viability z-score with doxorubicin -0.22; viability z-score without drug -1.18.

Hnrnpul1 scored combined z-score class no change with or without drug; viability z-score with doxorubicin 1.35; viability z-score without drug -0.51. Pcdhga6 showed combined z-score class no change with or without drug; viability z-score with doxorubicin -1.57; viability z-score without drug -0.17. After knock-down of Cdc50a, the screen gave combined z-score class low cell count with doxorubicin only (active); viability z-score with doxorubicin -2.92; viability z-score without drug -0.67. With knock-down of Cog4 the results were combined z-score class no change with or without drug; viability z-score with doxorubicin 0.11; viability z-score without drug -0.17.
